By UniProt entry, the sequences of proteins in these tests, tags left out. Residues count along the entry.
UniProt Q05397: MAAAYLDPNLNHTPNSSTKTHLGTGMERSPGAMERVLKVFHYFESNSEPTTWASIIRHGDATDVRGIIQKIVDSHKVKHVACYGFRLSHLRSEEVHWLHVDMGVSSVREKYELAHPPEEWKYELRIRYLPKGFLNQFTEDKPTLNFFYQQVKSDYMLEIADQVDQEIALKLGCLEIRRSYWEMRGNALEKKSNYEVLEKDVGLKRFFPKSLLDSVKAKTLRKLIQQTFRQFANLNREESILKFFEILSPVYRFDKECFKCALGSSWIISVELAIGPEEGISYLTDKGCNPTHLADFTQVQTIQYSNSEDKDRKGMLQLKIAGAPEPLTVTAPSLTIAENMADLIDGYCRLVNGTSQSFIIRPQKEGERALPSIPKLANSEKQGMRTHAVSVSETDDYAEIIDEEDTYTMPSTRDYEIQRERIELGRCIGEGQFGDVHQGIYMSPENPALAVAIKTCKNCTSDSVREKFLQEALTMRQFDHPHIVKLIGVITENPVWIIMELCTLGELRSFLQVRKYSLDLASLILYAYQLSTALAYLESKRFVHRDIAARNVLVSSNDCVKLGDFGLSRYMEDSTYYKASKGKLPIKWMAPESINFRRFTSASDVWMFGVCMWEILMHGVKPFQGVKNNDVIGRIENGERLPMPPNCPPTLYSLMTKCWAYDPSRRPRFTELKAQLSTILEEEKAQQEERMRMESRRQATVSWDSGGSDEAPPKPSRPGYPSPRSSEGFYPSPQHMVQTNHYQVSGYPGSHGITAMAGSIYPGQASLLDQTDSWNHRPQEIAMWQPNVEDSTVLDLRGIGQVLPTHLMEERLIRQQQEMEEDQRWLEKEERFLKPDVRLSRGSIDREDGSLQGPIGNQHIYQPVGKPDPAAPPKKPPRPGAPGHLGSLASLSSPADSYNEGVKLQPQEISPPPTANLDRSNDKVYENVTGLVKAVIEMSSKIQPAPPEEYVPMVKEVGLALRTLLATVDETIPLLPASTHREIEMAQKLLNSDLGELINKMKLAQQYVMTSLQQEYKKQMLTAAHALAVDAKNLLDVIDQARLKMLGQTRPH
UniProt Q9NZQ7, residues 19-290: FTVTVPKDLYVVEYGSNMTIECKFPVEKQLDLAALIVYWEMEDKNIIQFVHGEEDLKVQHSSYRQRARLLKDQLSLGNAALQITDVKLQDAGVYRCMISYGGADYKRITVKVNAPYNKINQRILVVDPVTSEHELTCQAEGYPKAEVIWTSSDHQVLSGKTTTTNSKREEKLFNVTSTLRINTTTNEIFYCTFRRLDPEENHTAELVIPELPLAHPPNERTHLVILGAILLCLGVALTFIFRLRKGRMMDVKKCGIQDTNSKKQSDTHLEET

According to PMC12562877:

Target: focal adhesion kinase (FAK), endogenous in BT-549 cells (human (endogenous in BT-549)) (UniProt Q05397)
Test: proximity labelling; ProtA-TurboID; BT-549 cells permeabilized with 0.04% digitonin, incubated with IgG (control) or anti-FAK antibody, then ProtA-TurboID; biotinylation at 37 C for 10 min; streptavidin pull-down; blot anti-PD-L1

Substance: programmed death-ligand 1 (PD-L1), endogenous in BT-549 cells (from UniProt Q9NZQ7 19-290)
- binding: binds

Results are given in words; binding and its absence hold for the method and conditions named. Binding seen in cells or lysates may run through a third protein. These calls come from enrichment with a bait or labelling near it, and not all partners need be listed.
